Reference: PubChem BioAssay AID328 (DTP/NCI, 2004)
The list shows only some results of the screen, not a fair sample: it gathers tests that were run many times, whatever their T/C, doses with no T/C, and many T/C values between a quarter and a half above the control. Further doses and runs are listed elsewhere. T/C: endpoint of the treated group in % of that of the vehicle group. Some entries give survivors of the animals treated and no T/C: the source holds a T/C of zero for them, seemingly a mark for toxic or unscored doses. Some doses without a T/C left all or most animals alive at the check, yet need not have been tolerated: survival well below the control is almost never listed, so the zero probably covers shortened survival too. Survivors were counted at the toxicity check, usually on the fifth day, unless a day is given; later deaths do not show. Schedules are NCI's codes, taken here to give the interval after Q, in days (D) or hours (H), and the number of doses after X. Where survival is the endpoint, the PubChem record calls one and a half times the control and up active, and a quarter to a half above the control has no call in these data; cut-offs in other NCI protocols can differ.

System: BDF1 mice, P388 leukemia ip, median survival T/C
Assay: NCI In Vivo Anticancer Drug Screen. Data for tumor model P388 Leukemia (intraperitoneal) in B6D2F1 (BDF1) mice
Conditions: T/C endpoint: median survival time, higher T/C = longer survival
How it was run: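 Read-out is survival of treated animals expressed relative to the vehicle group, as a T/C ratio.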

[1] = dose: 400.0 mg/kg/injection, schedule: Q01DX009 (ip), vehicle: saline with Tween-80

CC(/C=N/N=C(N)N)=N\NC(N)=S
survivor count [1]: 0 of 6

CC(=O)[O][Pb]([O]C(C)=O)([c]1ccccc1)[c]1ccccc1
T/C (dose: 100.0 mg/kg/injection, schedule: Q01DX009 (ip), vehicle: saline with Tween-80): 148 % of control | survivor count (dose: 200.0 mg/kg/injection, schedule: Q01DX009 (ip), vehicle: saline with Tween-80): 6 of 6 | survivor count [1]: 5 of 6

COc1cc2c(c(OC)c1OC)-c1ccc(OC)c(=O)cc1[C@@H](NC(=O)CF)CC2
survivor count (dose: 0.37 mg/kg/injection, schedule: Q01DX009 (ip), vehicle: saline with Tween-80): 5 of 6 | survivor count (dose: 0.75 mg/kg/injection, schedule: Q01DX009 (ip), vehicle: saline with Tween-80): 0 of 6 | survivor count (dose: 0.75 mg/kg/injection, schedule: Q01DX009 (ip), vehicle: saline): 3 of 6 | survivor count (dose: 1.12 mg/kg/injection, schedule: Q01DX009 (ip), vehicle: saline with Tween-80): 0 of 6 | survivor count (dose: 1.12 mg/kg/injection, schedule: Q01DX009 (ip), vehicle: saline): 4 of 6 | T/C (dose: 11.5 micrograms/kg/injection, schedule: Q01DX009 (ip), vehicle: saline with Tween-80): 128 % of control | T/C (dose: 23.1 micrograms/kg/injection, schedule: Q01DX009 (ip), vehicle: saline with Tween-80): 144 % of control | T/C (dose: 92.5 micrograms/kg/injection, schedule: Q01DX009 (ip), vehicle: saline with Tween-80): 140 % of control

Cn1c(=O)c2c(ncn2C)n(C)c1=O
survivor count (dose: 400.0 mg/kg/injection, schedule: Q01DX010 (ip), vehicle: saline): 0 of 6
